Results are given in words; binding and its absence hold for the method and conditions named.
T1: rice phytochrome C (phyC), native (rice, Oryza sativa L. cv. Nipponbare (endogenous in seedlings)), Q10CQ8
T1 chain: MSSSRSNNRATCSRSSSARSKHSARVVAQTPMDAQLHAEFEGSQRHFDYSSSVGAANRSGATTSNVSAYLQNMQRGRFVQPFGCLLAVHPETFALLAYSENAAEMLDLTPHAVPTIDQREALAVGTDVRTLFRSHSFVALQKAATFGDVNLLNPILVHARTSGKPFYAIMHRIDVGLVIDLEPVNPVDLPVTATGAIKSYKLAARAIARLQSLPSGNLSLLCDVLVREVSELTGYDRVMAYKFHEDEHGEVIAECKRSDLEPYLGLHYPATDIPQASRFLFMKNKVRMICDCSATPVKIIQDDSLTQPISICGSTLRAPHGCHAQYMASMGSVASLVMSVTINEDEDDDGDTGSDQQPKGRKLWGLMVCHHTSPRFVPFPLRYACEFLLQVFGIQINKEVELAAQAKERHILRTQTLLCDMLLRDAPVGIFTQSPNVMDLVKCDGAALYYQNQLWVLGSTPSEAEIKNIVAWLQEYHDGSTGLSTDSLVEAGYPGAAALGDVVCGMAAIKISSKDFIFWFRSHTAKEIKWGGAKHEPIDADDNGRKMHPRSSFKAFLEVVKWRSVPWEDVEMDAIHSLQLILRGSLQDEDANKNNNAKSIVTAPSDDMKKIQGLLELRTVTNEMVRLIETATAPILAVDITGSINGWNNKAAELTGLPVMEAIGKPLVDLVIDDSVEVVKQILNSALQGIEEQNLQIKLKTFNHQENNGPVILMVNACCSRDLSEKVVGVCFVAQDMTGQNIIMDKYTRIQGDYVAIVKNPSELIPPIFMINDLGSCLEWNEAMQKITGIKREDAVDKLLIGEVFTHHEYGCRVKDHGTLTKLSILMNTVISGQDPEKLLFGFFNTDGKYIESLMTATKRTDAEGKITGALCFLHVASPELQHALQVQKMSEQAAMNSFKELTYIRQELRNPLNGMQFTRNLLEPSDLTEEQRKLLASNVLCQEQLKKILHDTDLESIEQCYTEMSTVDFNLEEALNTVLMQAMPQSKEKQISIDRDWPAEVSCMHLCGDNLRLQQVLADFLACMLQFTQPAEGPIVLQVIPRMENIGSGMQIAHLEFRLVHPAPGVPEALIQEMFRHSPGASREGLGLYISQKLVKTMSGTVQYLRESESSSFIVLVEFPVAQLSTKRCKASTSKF

T2: recombinant rice phyC with phytochromobilin (rice), Q10CQ8
T2 chain: T1 chain

B1: rice phytochrome C (phyC), native, Q10CQ8 1-1137 (protein)
chain: T1 chain
B2: recombinant rice phyC with phytochromobilin, Q10CQ8 1-1137 (protein)
chain: T1 chain
modifications: here or on the partner: phytochromobilin as chromophore; phytochromobilin as chromophore

Tests used:
[1] = molecular target: T1, rice phytochrome C (phyC), native …; assay: SEC; protein extracts (1 mg total soluble protein) of etiolated seedlings of WT and phytochrome single and double mutants on Superdex 200 HR 10/30; 50 mM Na-phosphate pH 7.0, 150 mM NaCl, 4 C; fractions immunoblotted with anti-PHYA, anti-PHYB, anti-PHYC; column calibrated with molecular weight standards; details: remark: other sources report otherwise
[2] = molecular target: T2, recombinant rice phyC with …; assay: SEC; recombinant phyA or phyC from E. coli fractionated on the same column; fractions #17-#24 immunoblotted with anti-His tag or anti-phytochrome antibodies; both purified; details: remark: other sources report otherwise

Binder	binding [1]	binding [2]
B1	no binding	
B2		no binding

Source: publication PMC4031084, “The Phytochrome B/Phytochrome C Heterodimer Is Necessary for Phytochrome C-Mediated Responses in Rice Seedlings” (PLoS ONE, 2014)
